# Laboratory results published in PubChem BioAssay AID2685 (National Center for Advancing Translational Sciences (NCATS), 2010).
# The other results are listed elsewhere or left out. Shown are side measurements of this screen, not its main read-out; they come without a call. Most of these compounds were active or inconclusive in the main read-out, so they are no random draw. The note in brackets gives the kind of curve behind each potency; many fits are weak.
# Experiment: qHTS Assay for Lipid Storage Modulators in Drosophila S3 Cells;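 for cell number change: cells counted by Cell Tracker Red CMTPX staining in the red channel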
# Conditions: BODIPY lipid droplet fluorescence, 18-24 h; for cell number change: measured here: cell count max response, cells fed with added oleic acid
# Outline: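 Drosophila S3 cells loaded with oleic acid (400 uM, as added) and compounds at several concentrations; lipid droplets imaged by 488-nm laser-scanning cytometry, 500–530 nm intensity and object ratio to cell channel. Percent activity normalized to 20 uM Triacsin C.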
# [1] = measured here: cell number channel AC50, cells fed with added oleic acid
# [2] = measured here: lipid fluorescence (Fed channel) AC50, cells fed with added oleic acid
Structure (SMILES),AC50 [1],AC50 [2],cell number change
CCN(Cc1nc2ccccc2c(=O)[nH]1)Cc1nc2cc(OC)c(OC)cc2c(=O)[nH]1,"4.11 µM [rising, partial curve, poor fit]","1.03 µM [rising, partial curve, poor fit]",
CCN1CCCC1CN(Cc1cc2cc(C)cc(C)c2[nH]c1=O)C(=O)Nc1ccccc1OC (configuration not stated),"7.31 µM [rising, partial curve, poor fit]","29.1 µM [rising, partial curve, poor fit]",91.8%
O=C(COC(=O)CCC1CCCC1)Nc1ccccc1OC(F)F,"0.92 µM [falling, full curve, poor fit]","23.1 µM [falling, single point]",-28%
Cc1ccc2c(CN3CCN(S(=O)(=O)/C=C/c4ccccc4)CC3)cc(=O)oc2c1,,"4.61 µM [rising, full curve, poor fit]",19.7%
CC(=O)c1cc2c(=O)c3cc(C)ccc3oc2nc1C,"0.651 µM [rising, single point]","0.461 µM [rising, partial curve, poor fit]",
COc1ccc(CCNC(=O)Cn2cnc3c(cnn3-c3ccccc3Cl)c2=O)cc1OC,,"0.731 µM [rising, full curve, poor fit]",-7.65%
N#Cc1c(NC(=O)c2ccccc2)sc2c1CCC2,,,-0.245%
Cc1c(C(=O)NC2CCCc3ccccc32)oc2ccc(S(=O)(=O)N3CCCC3)cc12 (configuration not stated),,"0.116 µM [falling, full curve, poor fit]",9.14%
Clc1ccc(OCCn2c(-c3ccco3)nc3ccccc32)cc1,"20.6 µM [rising, single point]","29.1 µM [rising, single point]",41.9%
CC(C)C(=O)NC(=S)N1CCc2ccccc21,"2.06 µM [rising, partial curve, poor fit]","1.84 µM [rising, full curve, poor fit]",17.9%
COc1ccccc1/C=N/Nc1cc(C)nc2ccc(C)cc12,,"1.16 µM [falling, full curve]",19.4%
O=C(CCNC(=O)c1ccc(Br)cc1)Nc1ccccc1N1CCCCC1,"2.06 µM [rising, partial curve]","0.517 µM [rising, full curve, poor fit]",12.4%
CC(=O)c1cccc(N(CC(=O)NC2CCCCC2)C(=O)CCC(=O)Nc2nc(C)cs2)c1,,,-6.41%
O=C(CN(Cc1ccccc1Cl)C(=O)Cn1nnc(-c2cccs2)n1)NCC1CCCO1 (configuration not stated),"20.6 µM [rising, single point]",,42.8%
COc1ccc(-c2nnc3sc(C4CCCCC4)nn23)cc1OC,"0.517 µM [rising, full curve]","2.59 µM [rising, partial curve]",30.1%
CC(C)(C)c1ccc(CCC(CC(=O)O)CC(=O)O)cc1,"6.51 µM [falling, single point]","6.51 µM [falling, partial curve, poor fit]",-11.7%
Cc1nc2ccc(F)cc2cc1C(=O)Nc1cccc(Cl)c1C,,,-0.58%
CC(C)c1ccc(Nc2nnc(SC3CCOC3=O)s2)cc1 (configuration not stated),,"14.6 µM [rising, partial curve]",10.8%

# A second format for some results above:
Structure (SMILES) | AC50 [1] | AC50 [2] | cell number change
O=C(CCNC(=O)c1ccc(Br)cc1)Nc1ccccc1N1CCCCC1 | 2.06 µM [rising, partial curve] | 0.517 µM [rising, full curve, poor fit] | 12.4%
CC(=O)c1cccc(N(CC(=O)NC2CCCCC2)C(=O)CCC(=O)Nc2nc(C)cs2)c1 |  |  | -6.41%

# Additional results follow:

Structure (SMILES),AC50 [1],AC50 [2],cell number change
CC(C)Cc1c(O)nc(SCC(=O)N2CCCCCC2)[nH]c1=O,,,-19.7%
CN(C(=O)c1ccc(NC(=O)Cc2cccc(NC(=O)C3CCCN(C(=O)C4CC4)C3)c2)cc1)C1CCCC1 (configuration not stated),,,-6.5%
N#Cc1cnc2sc3ccccc3n2c1=N,,"0.146 µM [rising, full curve, poor fit]",12.9%
CN1CCOC(=O)/C1=N/Nc1cc(Cl)ccc1Cl,,"29.1 µM [rising, single point]",25.1%
COC(=O)c1ccc(CSc2nc3c(c(=O)n2-c2ccccc2)SCC3)o1,,,-7.99%
Cc1ccc(S(=O)(=O)N(C)c2ccc(C(=O)N3CCN(Cc4ccc5c(c4)OCO5)CC3)cc2)cc1,"0.731 µM [rising, single point]",,
O=C(c1cccs1)N1CCN(c2nc3ccc([N+](=O)[O-])cc3s2)CC1,,"0.146 µM [rising, full curve]",24.1%
COc1ccc(C(=O)c2coc3ccc(O)c(CN4CCCC4)c23)cc1,,"25.9 µM [falling, single point]",-5.98%
C=CCNC(=O)CCCOc1cccc(C)c1,,"2.31 µM [falling, full curve, poor fit]",-1.42%
Cn1ccc(NC(=O)Nc2ccc(Cl)cc2)n1,"29.1 µM [falling, single point]",,-41.7%
O=c1cc(CNc2cc(Cl)ccc2Cl)nc2sccn12,,"29.1 µM [falling, single point]",-12.8%
CCOC(=O)/C=C1\NC(=O)C(C)S1 (configuration not stated),"29.1 µM [falling, single point]","25.9 µM [falling, single point]",-41.7%
CCN(CC)S(=O)(=O)c1cccc(C(=O)OCC(=O)C23CC4CC(CC(C4)C2)C3)c1,,"1.64 µM [falling, partial curve]",-22.5%
O=C(CCN1CCN(CCO)CC1)Nc1ccc(F)c(F)c1,,"8.2 µM [falling, partial curve]",
COC(=O)C1=C(C(=O)OC)SC2(S1)C(C(=O)OC)=C(C(=O)OC)SC1=C2c2cc(C)ccc2NC1(C)C,"0.411 µM [rising, full curve]",,
Cc1ccc(S(=O)(=O)Cc2ccc(C(=O)NCc3cccs3)o2)cc1,"16.4 µM [rising, partial curve]","13 µM [rising, partial curve]",105%
COc1ccc(C(=O)N2CCC(C(=O)Nc3ccccc3OC)CC2)cc1,,"0.58 µM [falling, single point]",
Cc1onc(-c2c(Cl)cccc2Cl)c1C(=O)NCC1CCCO1 (configuration not stated),"29.1 µM [falling, partial curve]","23.1 µM [falling, partial curve]",-233%
